The record followed here is publication PMC10058529.

The chains behind the UniProt entries cited, without tags or fusion partners.
UniProt P56696: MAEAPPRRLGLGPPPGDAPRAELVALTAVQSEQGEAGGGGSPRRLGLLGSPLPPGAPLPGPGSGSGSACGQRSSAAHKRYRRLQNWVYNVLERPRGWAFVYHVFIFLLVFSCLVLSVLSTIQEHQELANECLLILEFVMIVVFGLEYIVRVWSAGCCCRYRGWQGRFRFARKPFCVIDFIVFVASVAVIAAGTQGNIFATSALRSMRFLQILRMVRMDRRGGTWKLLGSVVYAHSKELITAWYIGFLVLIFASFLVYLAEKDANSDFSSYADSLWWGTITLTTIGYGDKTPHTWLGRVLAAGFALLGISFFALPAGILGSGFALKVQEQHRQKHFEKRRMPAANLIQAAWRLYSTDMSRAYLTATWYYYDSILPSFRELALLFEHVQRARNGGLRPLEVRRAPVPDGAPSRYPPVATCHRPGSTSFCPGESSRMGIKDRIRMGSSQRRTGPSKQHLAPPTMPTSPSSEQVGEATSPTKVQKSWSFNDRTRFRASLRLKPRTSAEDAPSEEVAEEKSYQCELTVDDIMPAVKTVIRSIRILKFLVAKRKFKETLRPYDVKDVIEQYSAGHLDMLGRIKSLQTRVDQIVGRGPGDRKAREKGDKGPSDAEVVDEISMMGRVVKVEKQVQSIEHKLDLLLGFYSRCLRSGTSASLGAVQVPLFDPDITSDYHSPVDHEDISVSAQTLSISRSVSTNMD
UniProt Q13547: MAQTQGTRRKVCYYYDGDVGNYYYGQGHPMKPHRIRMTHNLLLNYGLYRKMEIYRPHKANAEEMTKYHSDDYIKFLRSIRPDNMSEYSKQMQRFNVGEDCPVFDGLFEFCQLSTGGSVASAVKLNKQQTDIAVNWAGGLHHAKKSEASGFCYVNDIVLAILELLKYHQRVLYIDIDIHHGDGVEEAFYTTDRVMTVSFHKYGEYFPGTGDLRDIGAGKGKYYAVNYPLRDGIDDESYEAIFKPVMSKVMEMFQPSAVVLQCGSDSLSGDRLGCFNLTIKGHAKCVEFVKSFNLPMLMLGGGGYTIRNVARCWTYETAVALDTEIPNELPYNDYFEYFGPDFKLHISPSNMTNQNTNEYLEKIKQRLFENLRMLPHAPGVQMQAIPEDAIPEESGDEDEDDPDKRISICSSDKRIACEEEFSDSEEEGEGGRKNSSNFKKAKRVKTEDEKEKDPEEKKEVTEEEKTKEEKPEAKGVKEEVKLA
UniProt P08238: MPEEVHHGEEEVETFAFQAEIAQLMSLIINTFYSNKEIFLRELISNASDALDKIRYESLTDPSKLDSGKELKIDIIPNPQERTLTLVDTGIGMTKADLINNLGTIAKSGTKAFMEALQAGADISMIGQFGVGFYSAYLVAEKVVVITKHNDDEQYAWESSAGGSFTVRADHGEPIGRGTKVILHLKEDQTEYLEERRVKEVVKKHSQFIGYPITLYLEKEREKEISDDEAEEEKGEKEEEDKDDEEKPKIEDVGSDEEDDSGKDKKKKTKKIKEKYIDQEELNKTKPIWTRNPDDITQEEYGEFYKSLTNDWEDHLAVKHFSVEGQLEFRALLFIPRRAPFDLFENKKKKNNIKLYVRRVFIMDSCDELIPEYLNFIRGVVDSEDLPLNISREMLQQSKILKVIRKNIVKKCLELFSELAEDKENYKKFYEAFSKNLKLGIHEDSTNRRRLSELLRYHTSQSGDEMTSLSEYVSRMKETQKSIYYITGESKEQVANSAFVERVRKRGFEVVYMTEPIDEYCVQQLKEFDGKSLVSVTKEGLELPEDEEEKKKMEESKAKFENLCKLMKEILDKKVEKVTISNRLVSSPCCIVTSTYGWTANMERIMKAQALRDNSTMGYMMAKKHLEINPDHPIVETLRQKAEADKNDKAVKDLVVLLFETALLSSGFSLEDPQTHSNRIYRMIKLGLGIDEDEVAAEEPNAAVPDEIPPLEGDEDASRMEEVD

In test [1] the target is potassium voltage-gated channel subfamily Q member 4 (KCNQ4), expressed from pcDNA3.1-KCNQ4-EGFP-8xHis (UniProt P56696). The test is described as follows: co-IP; HEK293T cells transfected with KCNQ4-EGFP-8xHis, HA-HSP90β and 3myc-HDAC1; NP40 lysis buffer; protein A/G PLUS-Agarose; Western blot for HA, His and myc; the precipitating antibody is not told for this panel. For orientation: In western blotting, separated proteins are transferred to a membrane and probed.

The target is the same in test [2]. The test is described as follows: co-IP; HEK293T cells co-transfected with pcDNA3.1-KCNQ4-EGFP-8xHis and pcDNA3-HA-HSP90β, with or without VPA treatment; NP40 lysis buffer; KCNQ4 precipitated with anti-GFP antibody and protein A/G PLUS-Agarose, 4 °C for 24 h; HSP90β detected with anti-HA by Western blot.

These are yes or no findings as the source states them, for the method shown. In cells and extracts the contact can be indirect. Some entries that bind do so weakly or less than the wild type.

Turning to “HDAC1, expressed from pCs2+-3myc-HDAC1 (from UniProt Q13547 1-482) (enzyme)”, the binding result in test [1] is “binds”.

Take “HSP90β, expressed from pcDNA3-HA-HSP90β (from UniProt P08238 1-724)”: the binding entry in test [2] and in test [1] was “binds” throughout.
